Results on 1 molecule are retold here after article doi:10.1101/2025.02.07.637115 (bioRxiv, 2025).

The target in this experiment is T1, ActRIIB2-Fc (trap containing two ActRIIB ECDs) (human) (UniProt Q13705).
T1 sequence: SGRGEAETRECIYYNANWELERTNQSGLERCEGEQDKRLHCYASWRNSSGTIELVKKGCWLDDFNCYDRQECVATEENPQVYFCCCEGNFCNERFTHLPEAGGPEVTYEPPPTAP
The experiment in a line: SPR.

These are yes or no findings as the source states them, for the method shown. Some binding calls cover weakened binding; strength is not graded here. Sequences can lack the tags named with a protein.

B1: deglycosylated BMP6 (ligand)
chain: SASSRRRQQSRNRSTQSQDVARVSSASDYNSSELKTACRKHELYVSFQDLGWQDWIIAPKGYAANYCDGECSFPLNAHMNATNHAIVQTLVHLMNPEYVPKPCCAPTKLNAISVLYFDDNSNVILKKYRNMVVRACGCH
modifications: deglycosylated with PNGase F
With B1, the binding entry is “binds”.
